Reference: paper PMC10926643
These are yes or no findings as the source states them, for the method shown. In cells and extracts the contact can be indirect. Some results given as binding are weak or reduced against the parent protein; the word gives no strength. For part of these data: Sequences can lack the tags named with a protein. Blank lines part the entries; values can stand above or below the binder they belong to.

How the values were obtained:
FGF12-GFP.myc = biological target: T1, FGF12-GFP.myc (UniProt P61328); assay: proximity ligation; in situ PLA in fixed U2OS-FGF12-GFP.myc cells with anti-FGF12, anti-NOLC1 and anti-TCOF1 antibodies; cells treated with siRNA against galectin-1 or non-targeting siRNA; high content quantitative confocal microscopy, number of PLA spots per cell
T1 sequence: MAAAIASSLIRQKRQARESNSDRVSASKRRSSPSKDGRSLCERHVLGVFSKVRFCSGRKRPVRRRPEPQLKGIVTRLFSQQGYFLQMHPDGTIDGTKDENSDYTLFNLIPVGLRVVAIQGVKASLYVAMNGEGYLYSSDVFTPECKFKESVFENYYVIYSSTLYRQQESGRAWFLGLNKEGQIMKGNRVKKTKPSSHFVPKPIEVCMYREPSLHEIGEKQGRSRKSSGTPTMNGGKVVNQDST

[1] = biological target: T2, treacle ribosome biogenesis factor 1, TCOF1 (human (endogenous in U2OS)) (UniProt Q13428); assay: as above
T2 sequence: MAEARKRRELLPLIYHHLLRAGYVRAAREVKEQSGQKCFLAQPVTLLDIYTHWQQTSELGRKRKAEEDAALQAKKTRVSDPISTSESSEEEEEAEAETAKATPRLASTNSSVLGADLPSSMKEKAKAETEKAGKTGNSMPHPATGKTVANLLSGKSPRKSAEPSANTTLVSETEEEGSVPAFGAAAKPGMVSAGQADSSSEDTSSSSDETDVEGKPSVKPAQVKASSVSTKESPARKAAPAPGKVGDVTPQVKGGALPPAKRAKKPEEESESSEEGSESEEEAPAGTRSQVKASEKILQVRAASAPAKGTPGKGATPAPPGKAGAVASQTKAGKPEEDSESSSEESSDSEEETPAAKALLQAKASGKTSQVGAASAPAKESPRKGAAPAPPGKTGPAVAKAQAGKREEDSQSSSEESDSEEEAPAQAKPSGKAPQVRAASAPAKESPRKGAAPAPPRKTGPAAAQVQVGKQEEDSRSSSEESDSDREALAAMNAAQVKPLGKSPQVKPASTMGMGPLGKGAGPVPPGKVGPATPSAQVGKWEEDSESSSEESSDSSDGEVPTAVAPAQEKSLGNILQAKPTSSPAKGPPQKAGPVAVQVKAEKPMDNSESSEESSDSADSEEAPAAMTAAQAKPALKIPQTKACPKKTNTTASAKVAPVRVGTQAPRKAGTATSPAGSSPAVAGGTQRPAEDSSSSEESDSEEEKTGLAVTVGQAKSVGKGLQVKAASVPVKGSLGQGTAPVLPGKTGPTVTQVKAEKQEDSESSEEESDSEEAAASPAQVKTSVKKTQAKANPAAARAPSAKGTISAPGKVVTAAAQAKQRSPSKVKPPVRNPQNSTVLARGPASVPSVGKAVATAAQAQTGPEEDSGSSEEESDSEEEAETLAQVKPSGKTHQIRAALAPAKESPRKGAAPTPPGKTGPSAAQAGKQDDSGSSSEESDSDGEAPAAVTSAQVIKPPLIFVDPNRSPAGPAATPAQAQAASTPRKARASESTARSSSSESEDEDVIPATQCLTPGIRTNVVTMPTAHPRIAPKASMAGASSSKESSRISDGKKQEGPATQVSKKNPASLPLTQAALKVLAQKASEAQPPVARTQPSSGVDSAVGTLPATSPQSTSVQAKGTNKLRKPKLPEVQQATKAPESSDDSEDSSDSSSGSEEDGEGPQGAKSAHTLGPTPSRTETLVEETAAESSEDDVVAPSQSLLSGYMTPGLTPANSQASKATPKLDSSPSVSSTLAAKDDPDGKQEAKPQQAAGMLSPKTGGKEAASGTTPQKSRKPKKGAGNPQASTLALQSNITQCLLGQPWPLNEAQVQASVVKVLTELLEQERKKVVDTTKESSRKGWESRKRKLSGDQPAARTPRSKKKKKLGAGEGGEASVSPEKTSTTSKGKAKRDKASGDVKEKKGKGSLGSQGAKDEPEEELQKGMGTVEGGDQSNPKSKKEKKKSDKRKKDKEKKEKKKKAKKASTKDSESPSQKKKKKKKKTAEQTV

binding (FGF12-GFP.myc): binds
binding [1]: binds
B1: nucleolar and coiled-body phosphoprotein 1, NOLC1 (protein, UniProt Q14978 1-699)
chain: MADAGIRRVVPSDLYPLVLGFLRDNQLSEVANKFAKATGATQQDANASSLLDIYSFWLKSAKVPERKLQANGPVAKKAKKKASSSDSEDSSEEEEEVQGPPAKKAAVPAKRVGLPPGKAAAKASESSSSEESSDDDDEEDQKKQPVQKGVKPQAKAAKAPPKKAKSSDSDSDSSSEDEPPKNQKPKITPVTVKAQTKAPPKPARAAPKIANGKAASSSSSSSSSSSSDDSEEEKAAATPKKTVPKKQVVAKAPVKAATTPTRKSSSSEDSSSDEEEEQKKPMKNKPGPYSSVPPPSAPPPKKSLGTQPPKKAVEKQQPVESSEDSSDESDSSSEEEKKPPTKAVVSKATTKPPPAKKAAESSSDSSDSDSSEDDEAPSKPAGTTKNSSNKPAVTTKSPAVKPAAAPKQPVGGGQKLLTRKADSSSSEEESSSSEEEKTKKMVATTKPKATAKAALSLPAKQAPQGSRDSSSDSDSSSSEEEEEKTSKSAVKKKPQKVAGGAAPSKPASAKKGKAESSNSSSSDDSSEEEEEKLKGKGSPRPQAPKANGTSALTAQNGKAAKNSEEEEEEKKKAAVVVSKSGSLKKRKQNEAAKEAETPQAKKIKLQTPNTFPKRKKGEKRASSPFRRVREEEIEVDSRVADNSFDAKRGAAGDWGERANQVLKFTKGKSFRHEKTKKKRGSYRGGSISVQVNSIKFDSE

binding (FGF12-GFP.myc): binds
B2: treacle ribosome biogenesis factor 1, TCOF1 (protein, UniProt Q13428 1-1488)
chain: T2 sequence
